This passage reports binding results from article PMC9845754.

By UniProt entry, the sequences of proteins in these tests, tags left out.
UniProt O82481: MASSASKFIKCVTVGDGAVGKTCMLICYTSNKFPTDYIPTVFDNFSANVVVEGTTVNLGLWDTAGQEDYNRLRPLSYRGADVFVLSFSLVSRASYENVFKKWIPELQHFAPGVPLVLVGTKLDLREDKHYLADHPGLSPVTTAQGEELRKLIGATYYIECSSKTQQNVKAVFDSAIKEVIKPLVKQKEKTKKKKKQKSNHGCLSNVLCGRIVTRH
UniProt Q38919: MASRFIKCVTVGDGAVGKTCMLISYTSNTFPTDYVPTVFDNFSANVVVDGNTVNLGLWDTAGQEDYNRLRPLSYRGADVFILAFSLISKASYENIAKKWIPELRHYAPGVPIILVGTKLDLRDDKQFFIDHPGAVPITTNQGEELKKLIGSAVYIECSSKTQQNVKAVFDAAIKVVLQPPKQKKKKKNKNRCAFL
UniProt Q38937: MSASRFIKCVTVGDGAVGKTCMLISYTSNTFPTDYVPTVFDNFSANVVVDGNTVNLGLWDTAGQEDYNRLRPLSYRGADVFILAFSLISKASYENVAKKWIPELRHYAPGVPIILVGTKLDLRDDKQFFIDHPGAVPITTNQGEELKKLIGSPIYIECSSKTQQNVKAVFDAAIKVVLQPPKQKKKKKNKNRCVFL
UniProt O82480: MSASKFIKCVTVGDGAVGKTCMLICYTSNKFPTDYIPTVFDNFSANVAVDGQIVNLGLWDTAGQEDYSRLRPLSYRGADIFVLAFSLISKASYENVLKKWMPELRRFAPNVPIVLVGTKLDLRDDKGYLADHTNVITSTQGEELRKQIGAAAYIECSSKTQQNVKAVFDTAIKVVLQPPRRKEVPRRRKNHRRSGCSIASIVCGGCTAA

No constants are given. Whether binding was seen depends on the method and setting. For some assays here: A result given as binding can be weak or reduced; the word gives no strength. For some assays here: Where a sequence is shown, tags or fusion partners need not be part of it. For some assays here: Binding seen in cells or lysates may run through a third protein.

Assay [1] addresses T1, ICR3 (interactor of constitutively active ROP 3) fused to a half of YFP for BiFC (Arabidopsis) (UniProt Q9LSS5).
T1 sequence: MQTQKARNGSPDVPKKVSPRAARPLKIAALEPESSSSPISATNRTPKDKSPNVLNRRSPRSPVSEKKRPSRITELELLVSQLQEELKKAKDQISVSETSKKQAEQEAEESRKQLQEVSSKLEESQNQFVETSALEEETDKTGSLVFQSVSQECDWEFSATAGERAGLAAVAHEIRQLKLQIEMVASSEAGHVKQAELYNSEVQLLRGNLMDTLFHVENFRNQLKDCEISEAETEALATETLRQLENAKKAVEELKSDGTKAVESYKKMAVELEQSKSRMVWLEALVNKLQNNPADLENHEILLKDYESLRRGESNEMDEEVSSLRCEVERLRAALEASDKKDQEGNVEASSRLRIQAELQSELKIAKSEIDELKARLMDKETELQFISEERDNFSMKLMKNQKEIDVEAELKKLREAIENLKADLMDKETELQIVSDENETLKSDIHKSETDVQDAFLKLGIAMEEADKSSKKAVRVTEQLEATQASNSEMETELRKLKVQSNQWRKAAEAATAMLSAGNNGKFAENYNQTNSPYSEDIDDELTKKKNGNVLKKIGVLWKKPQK
Nature of the assay: split reporter; BiFC; YN and YC fusions transiently co-expressed in N. benthamiana leaf epidermis, confocal imaging; for the ICR-ICR pairs lambda stacks excited at 514 nm, emission 521-690 nm, unmixed for the YFP signal.

Assay [2] concerns the target T2, ICR5 (interactor of constitutively active ROP 5) fused to a half of YFP for BiFC (Arabidopsis) (UniProt Q8VYU8).
T2 sequence: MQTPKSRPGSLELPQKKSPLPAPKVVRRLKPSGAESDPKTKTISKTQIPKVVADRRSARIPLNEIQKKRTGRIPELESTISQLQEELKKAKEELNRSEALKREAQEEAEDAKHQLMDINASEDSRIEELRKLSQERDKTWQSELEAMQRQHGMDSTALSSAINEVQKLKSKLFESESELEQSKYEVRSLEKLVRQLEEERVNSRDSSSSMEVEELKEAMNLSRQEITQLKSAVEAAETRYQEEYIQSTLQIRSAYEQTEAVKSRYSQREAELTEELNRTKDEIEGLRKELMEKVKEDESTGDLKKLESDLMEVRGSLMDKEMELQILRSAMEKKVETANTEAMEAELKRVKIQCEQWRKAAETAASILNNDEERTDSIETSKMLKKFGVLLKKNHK
Described as above.

For assay [3], the target named is T3, ICR3-YC (interactor of constitutively active ROP 3 fused to the C-terminal half of YFP) (Arabidopsis) (UniProt Q9LSS5).
T3 sequence: T1 sequence
Nature of the assay: split reporter; BiFC with halves of YFP (YN, YC), transient expression in N. benthamiana leaf epidermis cells; confocal imaging, for some panels lambda scan 521-690 nm and linear unmixing of the YFP signal.

Assay [4] concerns the target T4, ICR5-YC (interactor of constitutively active ROP 5 fused to the C-terminal half of YFP) (Arabidopsis) (UniProt Q8VYU8).
T4 sequence: T2 sequence
The description is as above.

For a further assay, the target named is YN-ROP11 (UniProt O82481). The assay is described as above.
For a further assay, the target named is YN-ROP2 (UniProt Q38919). The assay is described as above.
The next assay addresses YN-ROP4 (UniProt Q38937). Described as above.
Another assay concerns the target YN-ROP9 (UniProt O82480). The description is as above.
In assay [5] the target is YN-rop11^CA (constitutively active ROP11) (UniProt O82481). Described as above.
Assay [6] concerns the target ICR2 (interactor of constitutively active ROP 2) fused to a half of YFP for BiFC (Arabidopsis) (UniProt Q9ZQC5). Kind of assay: split reporter; BiFC; YN and YC fusions transiently co-expressed in N. benthamiana leaf epidermis, confocal imaging; for the ICR-ICR pairs lambda stacks excited at 514 nm, emission 521-690 nm, unmixed for the YFP signal.
The target in assay [7] is ROP10, yeast two-hybrid fusion (pGBT ROP10). Kind of assay: two-hybrid; yeast two-hybrid in S. cerevisiae PJ69-4a; pGBT9.BS and pGAD.GH fusions; growth of four decimal dilutions on -Leu -Trp -His medium with 1 mM 3AT, 28°C.
The target in assay [8] is ROP6, yeast two-hybrid fusion (pGBT ROP6). The assay is described as above.
Assay [9] deals with taxol-stabilized microtubules polymerized from porcine brain tubulin (porcine). Nature of the assay: co-sedimentation; 0-10 uM ICR2-His6 with taxol-stabilized microtubules (5 uM tubulin) in PEMT pH 6.9; 100,000 g, 25°C, 15 min; supernatant and pellet on Coomassie-stained SDS-PAGE; both purified.

With “ICR2 (interactor of constitutively active ROP 2) fused to a half of YFP for BiFC (from UniProt Q9ZQC5)”, the binding entry in [1] and in assay [2] was “no binding” in each case.

Regarding “ICR2-YC (interactor of constitutively active ROP 2 fused to the C-terminal half of YFP) (from UniProt Q9ZQC5)”, the binding result in assay [3] is “no binding”; in assay [4], “no binding”; with YN-ROP11 it was “binds”; with YN-ROP2, “binds”; with YN-ROP4 it was “binds”; with YN-ROP9 it was “binds”. Besides, the binding result in [5] is on record as “binds”.

B1: ICR3 (interactor of constitutively active ROP 3) fused to a half of YFP for BiFC (protein, UniProt Q9LSS5 1-564)
chain: T1 sequence
Turning to B1, the binding entry in assay [6] is listed as “no binding”.

B2: ICR2, yeast two-hybrid fusion (pGAD-ICR2) (protein, UniProt Q9ZQC5 1-583)
chain: MQTPKPRPGSLEVPQKKSPASTPKTARKLKTSESDPVSSPNTKIRTPKTQSPKVVADRRSPRTPVNEIQKKRTGKTPELASQISQLQEELKKAKEQLSASEALKKEAQDQAEETKQQLMEINASEDSRIDELRKLSQERDKAWQSELEAMQRQHAMDSAALSSTMNEVQKLKAQLSESENVENLRMELNETLSLVEKLRGELFDAKEGEAQAHEIVSGTEKQLEIANLTLEMLRSDGMKMSEACNSLTTELEQSKSEVRSLEQLVRQLEEEDEARGNANGDSSSVEELKEEINVARQEISQLKSAVEVTERRYHEEYIQSTLQIRTAYEQVDEVKSGYAQREAELGEELKKTKAERDSLHERLMDKEAKLRILVDENEILNSKIKEKEEVYLNLENSLNQNEPEDTGELKKLESDVMELRANLMDKEMELQSVMSQYESLRSEMETMQSEKNKAIDEALAKLGSLTEEADKSGKRAENATEQLGAAQVTNTELEAELRRLKVQCDQWRKAAEAAATMLSGGNNNNNSNGKYVERTGSLESPLRRRNVNMSPYMGETDDELSSPKKKNGSMLKKIGVLLKKSQK
For the molecule B2, the binding entry in assay [7] and in [8] was “binds” in each case.

B3: ICR5 (interactor of constitutively active ROP 5) fused to a half of YFP for BiFC (protein, UniProt Q8VYU8 1-396)
chain: T2 sequence
As to B3, the binding result in assay [6] was “no binding”.

B4: ICR2-His6 (protein, UniProt Q9ZQC5 56-583)
chain: ADRRSPRTPVNEIQKKRTGKTPELASQISQLQEELKKAKEQLSASEALKKEAQDQAEETKQQLMEINASEDSRIDELRKLSQERDKAWQSELEAMQRQHAMDSAALSSTMNEVQKLKAQLSESENVENLRMELNETLSLVEKLRGELFDAKEGEAQAHEIVSGTEKQLEIANLTLEMLRSDGMKMSEACNSLTTELEQSKSEVRSLEQLVRQLEEEDEARGNANGDSSSVEELKEEINVARQEISQLKSAVEVTERRYHEEYIQSTLQIRTAYEQVDEVKSGYAQREAELGEELKKTKAERDSLHERLMDKEAKLRILVDENEILNSKIKEKEEVYLNLENSLNQNEPEDTGELKKLESDVMELRANLMDKEMELQSVMSQYESLRSEMETMQSEKNKAIDEALAKLGSLTEEADKSGKRAENATEQLGAAQVTNTELEAELRRLKVQCDQWRKAAEAAATMLSGGNNNNNSNGKYVERTGSLESPLRRRNVNMSPYMGETDDELSSPKKKNGSMLKKIGVLLKKSQK
For the molecule B4, the binding result in [9] is given as “binds”.
